Results are given in words; binding and its absence hold for the method and conditions named. Binding seen in cells or lysates may run through a third protein. Some results given as binding are weak or reduced against the parent protein; the word gives no strength. Tags and fused reporters may be left off the sequences shown.
T1: Flag-tagged KPTN-4KR (KPTN-K49/67/262/265R) (human) (UniProt Q9Y664)
T1 sequence: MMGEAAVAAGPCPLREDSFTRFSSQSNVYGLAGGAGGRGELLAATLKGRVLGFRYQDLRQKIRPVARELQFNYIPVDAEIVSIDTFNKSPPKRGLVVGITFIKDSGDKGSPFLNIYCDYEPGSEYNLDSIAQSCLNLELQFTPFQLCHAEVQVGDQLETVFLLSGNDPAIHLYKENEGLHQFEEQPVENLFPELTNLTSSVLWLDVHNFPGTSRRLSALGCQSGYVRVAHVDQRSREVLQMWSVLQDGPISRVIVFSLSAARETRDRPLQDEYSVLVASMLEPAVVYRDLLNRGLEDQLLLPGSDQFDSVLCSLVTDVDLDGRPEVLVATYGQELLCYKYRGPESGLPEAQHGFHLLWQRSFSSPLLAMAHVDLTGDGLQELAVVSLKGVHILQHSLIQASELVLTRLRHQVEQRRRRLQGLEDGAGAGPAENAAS

T2: Flag-tagged KPTN (human) (UniProt Q9Y664)
T2 sequence: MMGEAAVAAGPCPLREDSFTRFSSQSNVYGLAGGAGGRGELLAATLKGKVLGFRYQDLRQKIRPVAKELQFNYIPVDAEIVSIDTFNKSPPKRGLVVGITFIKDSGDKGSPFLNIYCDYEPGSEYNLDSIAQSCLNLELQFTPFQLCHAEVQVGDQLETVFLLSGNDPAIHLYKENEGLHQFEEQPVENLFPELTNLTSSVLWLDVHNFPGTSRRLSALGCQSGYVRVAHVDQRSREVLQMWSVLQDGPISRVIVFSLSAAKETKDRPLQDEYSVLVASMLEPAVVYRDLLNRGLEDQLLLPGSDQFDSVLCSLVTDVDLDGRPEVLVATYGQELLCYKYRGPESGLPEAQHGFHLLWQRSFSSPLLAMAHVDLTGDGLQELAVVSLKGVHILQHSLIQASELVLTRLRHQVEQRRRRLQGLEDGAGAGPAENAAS

T3: Flag-NPRL2 (UniProt Q8WTW4)
T3 sequence: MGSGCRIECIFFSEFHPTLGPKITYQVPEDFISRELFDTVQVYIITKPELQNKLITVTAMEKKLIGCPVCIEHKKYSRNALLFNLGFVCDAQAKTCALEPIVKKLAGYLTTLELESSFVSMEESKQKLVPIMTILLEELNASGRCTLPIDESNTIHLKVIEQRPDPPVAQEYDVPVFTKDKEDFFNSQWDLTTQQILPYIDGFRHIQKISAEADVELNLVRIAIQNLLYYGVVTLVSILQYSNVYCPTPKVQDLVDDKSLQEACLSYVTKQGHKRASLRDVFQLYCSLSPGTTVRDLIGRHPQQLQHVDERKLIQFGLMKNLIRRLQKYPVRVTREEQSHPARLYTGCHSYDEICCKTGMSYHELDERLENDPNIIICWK


Legend:
[1] = target: T1, Flag-tagged KPTN-4KR (KPTN-K49/67/262/265R) (human); experiment: co-IP; anti-Flag magnetic beads on whole cell lysates of HEK293T cells transduced with KPTN or KPTN-4KR (Figure 4B with stable HA-C12orf66; Figure 4G)
[2] = target: T2, Flag-tagged KPTN (human); experiment: as above
[3] = target: T3, Flag-NPRL2; experiment: co-IP; anti-Flag magnetic beads on whole cell lysates of HEK293T cells stably expressing Flag-C12orf66 or Flag-NPRL2, with shFBXO2 or increasing HA-FBXO2 (Figure 4A, C, D)

Row | binding [1] | binding [2] | binding [3] | Binder
1 | binds | binds |  | NPRL2 (construct not told) (protein, UniProt Q8WTW4 1-380) MGSGCRIECIFFSEFHPTLGPKITYQVPEDFISRELFDTVQVYIITKPELQNKLITVTAMEKKLIGCPVCIEHKKYSRNALLFNLGFVCDAQAKTCALEPIVKKLAGYLTTLELESSFVSMEESKQKLVPIMTILLEELNASGRCTLPIDESNTIHLKVIEQRPDPPVAQEYDVPVFTKDKEDFFNSQWDLTTQQILPYIDGFRHIQKISAEADVELNLVRIAIQNLLYYGVVTLVSILQYSNVYCPTPKVQDLVDDKSLQEACLSYVTKQGHKRASLRDVFQLYCSLSPGTTVRDLIGRHPQQLQHVDERKLIQFGLMKNLIRRLQKYPVRVTREEQSHPARLYTGCHSYDEICCKTGMSYHELDERLENDPNIIICWK
2 |  |  | binds | KPTN (endogenous) (protein, UniProt Q9Y664 1-436) MMGEAAVAAGPCPLREDSFTRFSSQSNVYGLAGGAGGRGELLAATLKGKVLGFRYQDLRQKIRPVAKELQFNYIPVDAEIVSIDTFNKSPPKRGLVVGITFIKDSGDKGSPFLNIYCDYEPGSEYNLDSIAQSCLNLELQFTPFQLCHAEVQVGDQLETVFLLSGNDPAIHLYKENEGLHQFEEQPVENLFPELTNLTSSVLWLDVHNFPGTSRRLSALGCQSGYVRVAHVDQRSREVLQMWSVLQDGPISRVIVFSLSAAKETKDRPLQDEYSVLVASMLEPAVVYRDLLNRGLEDQLLLPGSDQFDSVLCSLVTDVDLDGRPEVLVATYGQELLCYKYRGPESGLPEAQHGFHLLWQRSFSSPLLAMAHVDLTGDGLQELAVVSLKGVHILQHSLIQASELVLTRLRHQVEQRRRRLQGLEDGAGAGPAENAAS

Source: article PMC12904710
